Test results: publication PMC8327961, “Nse5/6 inhibits the Smc5/6 ATPase and modulates DNA substrate binding” (The EMBO Journal, 2021)
These are yes or no findings as the source states them, for the method shown. For some of these results: Binding can be weak; no strength is given. For some of these results: Where a sequence is shown, tags or fusion partners need not be part of it. For some of these results: In cells and extracts the contact can be indirect. Each block holds one molecule with its values, some of them ahead of it.

Tests used:
[1] = target: T1, Nse5-AviTag (from Nse5-AviTag-3C-Twin-Strep, Twin-Strep removed) (S. cerevisiae) (UniProt Q03718); experiment: cross-linking; XL-MS with PhoX (0.25 mM, 20 min, RT) on the octamer, 1.6 µM; ATPase buffer (10 mM Hepes-KOH pH 7.5, 150 mM potassium acetate, 2 mM MgCl2, 20% glycerol); without and with 2 mM ATP and 16 nM plasmid DNA; wild-type and Smc5(EQ)/Smc6(EQ) octamers; both purified
T1 sequence: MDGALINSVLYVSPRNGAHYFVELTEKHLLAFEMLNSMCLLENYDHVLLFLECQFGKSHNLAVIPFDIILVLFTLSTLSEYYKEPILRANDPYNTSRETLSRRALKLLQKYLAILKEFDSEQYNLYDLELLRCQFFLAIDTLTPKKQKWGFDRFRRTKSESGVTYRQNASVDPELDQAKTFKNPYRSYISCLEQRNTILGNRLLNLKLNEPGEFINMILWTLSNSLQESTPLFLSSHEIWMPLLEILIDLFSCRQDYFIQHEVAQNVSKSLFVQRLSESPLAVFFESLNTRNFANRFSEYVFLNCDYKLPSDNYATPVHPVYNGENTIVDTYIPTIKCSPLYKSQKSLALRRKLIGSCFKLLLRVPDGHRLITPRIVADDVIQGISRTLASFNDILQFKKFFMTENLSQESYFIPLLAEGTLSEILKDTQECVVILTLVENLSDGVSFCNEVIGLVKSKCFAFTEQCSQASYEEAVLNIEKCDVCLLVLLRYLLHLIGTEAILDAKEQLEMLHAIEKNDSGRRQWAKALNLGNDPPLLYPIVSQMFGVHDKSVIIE

[2] = target: T2, Nse5-3C-His(8) (S. cerevisiae) (UniProt Q03718); experiment: co-purification; Nse6 and Nse5 co-expressed in E. coli from a bicistronic construct; captured by the His-tag on Nse5 (HisTrap), then heparin and gel filtration
T2 sequence: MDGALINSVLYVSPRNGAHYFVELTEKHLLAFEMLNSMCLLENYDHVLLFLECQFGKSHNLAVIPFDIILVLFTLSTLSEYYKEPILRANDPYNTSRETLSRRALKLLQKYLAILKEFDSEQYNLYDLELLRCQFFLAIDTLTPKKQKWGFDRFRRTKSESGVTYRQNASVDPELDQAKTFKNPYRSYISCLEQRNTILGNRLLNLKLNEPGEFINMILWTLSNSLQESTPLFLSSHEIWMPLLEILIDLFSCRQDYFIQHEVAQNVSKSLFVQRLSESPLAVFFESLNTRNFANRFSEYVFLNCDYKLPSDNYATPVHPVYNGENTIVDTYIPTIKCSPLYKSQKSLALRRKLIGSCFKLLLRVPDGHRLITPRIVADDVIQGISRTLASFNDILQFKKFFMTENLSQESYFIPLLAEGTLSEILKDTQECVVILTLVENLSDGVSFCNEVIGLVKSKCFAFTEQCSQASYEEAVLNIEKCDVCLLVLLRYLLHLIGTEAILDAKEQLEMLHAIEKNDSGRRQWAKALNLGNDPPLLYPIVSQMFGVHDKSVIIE

[3] = target: Nse6(H368C) (S. cerevisiae); experiment: cross-linking; BMOE (30 s) on the purified Nse5/6 complex with the cysteine pair Nse6 H368C / Nse5 G56C; SDS-PAGE; both purified
[4] = target: Nse6(1-179)-CPD-His (S. cerevisiae); experiment: co-purification; bicistronic co-expression with Nse5 in E. coli; purified by the tag on the Nse6 fragment (N-terminal His(10)-Twin-Strep-3C, or C-terminal CPD-His)

- binding [1]: binds
- binding [2]: binds
Molecule: Nse6 (S. cerevisiae)

- binding [3]: binds
B1: Nse5(G56C) (protein, UniProt Q03718 1-556)
chain: MDGALINSVLYVSPRNGAHYFVELTEKHLLAFEMLNSMCLLENYDHVLLFLECQFCKSHNLAVIPFDIILVLFTLSTLSEYYKEPILRANDPYNTSRETLSRRALKLLQKYLAILKEFDSEQYNLYDLELLRCQFFLAIDTLTPKKQKWGFDRFRRTKSESGVTYRQNASVDPELDQAKTFKNPYRSYISCLEQRNTILGNRLLNLKLNEPGEFINMILWTLSNSLQESTPLFLSSHEIWMPLLEILIDLFSCRQDYFIQHEVAQNVSKSLFVQRLSESPLAVFFESLNTRNFANRFSEYVFLNCDYKLPSDNYATPVHPVYNGENTIVDTYIPTIKCSPLYKSQKSLALRRKLIGSCFKLLLRVPDGHRLITPRIVADDVIQGISRTLASFNDILQFKKFFMTENLSQESYFIPLLAEGTLSEILKDTQECVVILTLVENLSDGVSFCNEVIGLVKSKCFAFTEQCSQASYEEAVLNIEKCDVCLLVLLRYLLHLIGTEAILDAKEQLEMLHAIEKNDSGRRQWAKALNLGNDPPLLYPIVSQMFGVHDKSVIIE

- binding [4]: no binding
B2: Nse5 (co-expressed with tagged Nse6 truncations) (protein, UniProt Q03718 1-556)
chain: MDGALINSVLYVSPRNGAHYFVELTEKHLLAFEMLNSMCLLENYDHVLLFLECQFGKSHNLAVIPFDIILVLFTLSTLSEYYKEPILRANDPYNTSRETLSRRALKLLQKYLAILKEFDSEQYNLYDLELLRCQFFLAIDTLTPKKQKWGFDRFRRTKSESGVTYRQNASVDPELDQAKTFKNPYRSYISCLEQRNTILGNRLLNLKLNEPGEFINMILWTLSNSLQESTPLFLSSHEIWMPLLEILIDLFSCRQDYFIQHEVAQNVSKSLFVQRLSESPLAVFFESLNTRNFANRFSEYVFLNCDYKLPSDNYATPVHPVYNGENTIVDTYIPTIKCSPLYKSQKSLALRRKLIGSCFKLLLRVPDGHRLITPRIVADDVIQGISRTLASFNDILQFKKFFMTENLSQESYFIPLLAEGTLSEILKDTQECVVILTLVENLSDGVSFCNEVIGLVKSKCFAFTEQCSQASYEEAVLNIEKCDVCLLVLLRYLLHLIGTEAILDAKEQLEMLHAIEKNDSGRRQWAKALNLGNDPPLLYPIVSQMFGVHDKSVIIE
modifications: selenomethionine substituted (for the crystals)
